Source: patent US5041238A, “o,o'-Bridged oligophenylene laser dyes, dyestuff lasers and methods of lasing therewith” (Exciton Chemical Company, priority 1988, dated 1991)

Test: Lasing wavelength maximum and output energy, pumped at 308 nm by xenon chloride excimer laser
Conditions: 308 nm XeCl excimer laser; for Output Energy: Table II

For `c1ccc2c(c1)Cc1cc(-c3ccc4c(c3)Cc3ccccc3-4)ccc1-2` [2,2'-bifluorene], the “Output Energy” value (dioxane/methanol) was 3.1 units.
In the case of `CCCC1(CCC)c2ccccc2-c2ccc(-c3ccc4c(c3)C(CCC)(CCC)c3ccccc3-4)cc21` [9,9,9',9'-tetrapropyl-2,2'-bifluorene], the “Relative Output Energy” value (Table III, dioxane) is reported as 7.6 units.
For `CC(C)(C)c1ccc(-c2nnc(-c3ccc(-c4ccccc4)cc3)o2)cc1` [Butyl-PBD, reference compound], the “Output Energy” value (ethanol/toluene) was 1.9 units.
With `c1ccc(-c2ccc(-c3ccccc3)cc2)cc1` [p-terphenyl, reference compound] the “Output Energy” value (dioxane) was 2.6 units.
